The target of assay [1] is HA-Vif (HEK 293T) (HIV-1) (UniProt P12504). The experiment in a line: co-IP; as a1, but cell lysates treated with RNAse A (1 mg/mL); IP with anti-EGFP (Figure 6b) or anti-HA (Figure 7b, right); western blot. For orientation: Immunoblotting shows a protein as a band on a membrane.
Assay [2] concerns the target A3G-3xHA (human) (UniProt Q9HC16). The experiment in a line: co-IP; HEK 293T cells transfected, lysed in RIPA 1X; 2 µg of Ab (anti-HA, anti-HDAC6, anti-myc or anti-Flag) 2 h at 4°C, protein G Dynabeads, five washes in RIPA; western blot; lysates not treated with RNAse A; for HDAC6/A3G-Vif interactions cells pre-treated with ALLN (25 μM, 16 h).
The target of assay [3] is HA-Vif (HEK 293T) (HIV-1) (UniProt P12504). Described as above.
In assay [4] the target is GST-A3G-D128K (human) (UniProt Q9HC16). The experiment in a line: pull-down; as a4, but GST-A3G-D128K on beads incubated with both HA-Vif and HA-HDAC6 (wt or ΔBUZ) proteins; anti-HA blot; both purified.
Assay [5] deals with GST-A3G (human) (UniProt Q9HC16). The experiment in a line: pull-down; 3 μg GST fusion protein immobilised on glutathione-Sepharose beads, 2 μg purified in vitro translated HA-tagged protein, overnight in RIPA buffer at 4°C, three washes; anti-HA blot; both purified.
The target of assay [6] is GST-A3G-C97A (human) (UniProt Q9HC16). Described as above.
Assay [7] has as its target GST-A3G-D128K (human) (UniProt Q9HC16). The description is as above.
In assay [8] the target is GST-Vif (HIV-1) (UniProt P12504). Described as above.
Assay [9] deals with EGFP-HDAC6-BUZ (human) (UniProt Q9UBN7). The experiment in a line: co-IP; as a1, but cell lysates treated with RNAse A (1 mg/mL); IP with anti-EGFP (Figure 6b) or anti-HA (Figure 7b, right); western blot.
Assay [10] addresses EGFP-HDAC6-ΔBUZ (human) (UniProt Q9UBN7). The assay is described as above.
Assay [11] addresses EGFP-wt-HDAC6 (human) (UniProt Q9UBN7). The description is as above.
The target in assay [12] is EGFP-HDAC6-ΔBUZ (human) (UniProt Q9UBN7). The experiment in a line: co-IP; HEK 293T cells transfected, lysed in RIPA 1X; 2 µg of Ab (anti-HA, anti-HDAC6, anti-myc or anti-Flag) 2 h at 4°C, protein G Dynabeads, five washes in RIPA; western blot; lysates not treated with RNAse A; for HDAC6/A3G-Vif interactions cells pre-treated with ALLN (25 μM, 16 h).
The target in assay [13] is EGFP-wt-HDAC6 (human) (UniProt Q9UBN7). The assay is described as above.
The target of assay [14] is endogenous HDAC6 (HEK 293T cells) (human (endogenous in HEK 293T)) (UniProt Q9UBN7). The description is as above.
Assay [15] concerns the target A3G-Flag (human) (UniProt Q9HC16). The description is as above.
The target of assay [16] is A3G-myc (human) (UniProt Q9HC16). The description is as above.
Assay [17] deals with endogenous HDAC6 (CEM.NKR.CCR5 cells) (human (endogenous in CEM.NKR-CCR5)) (UniProt Q9UBN7). The experiment in a line: co-IP; CEM.NKR.CCR5 cell lysates, endogenous HDAC6 and A3G, without or with nucleofected Vif; IP with anti-HDAC6 Ab; blots with HDAC6, A3G or Vif Abs.

By UniProt entry, the sequences of proteins in these tests, tags left out. Where a name states a change or a piece, a line headed by the entry shows the natural chain unless it says otherwise.
UniProt P12504: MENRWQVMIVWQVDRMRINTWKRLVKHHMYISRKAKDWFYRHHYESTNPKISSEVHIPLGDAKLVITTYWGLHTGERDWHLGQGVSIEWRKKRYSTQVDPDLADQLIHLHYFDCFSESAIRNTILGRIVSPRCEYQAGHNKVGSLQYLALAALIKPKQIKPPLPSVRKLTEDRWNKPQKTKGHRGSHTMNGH
UniProt Q9HC16: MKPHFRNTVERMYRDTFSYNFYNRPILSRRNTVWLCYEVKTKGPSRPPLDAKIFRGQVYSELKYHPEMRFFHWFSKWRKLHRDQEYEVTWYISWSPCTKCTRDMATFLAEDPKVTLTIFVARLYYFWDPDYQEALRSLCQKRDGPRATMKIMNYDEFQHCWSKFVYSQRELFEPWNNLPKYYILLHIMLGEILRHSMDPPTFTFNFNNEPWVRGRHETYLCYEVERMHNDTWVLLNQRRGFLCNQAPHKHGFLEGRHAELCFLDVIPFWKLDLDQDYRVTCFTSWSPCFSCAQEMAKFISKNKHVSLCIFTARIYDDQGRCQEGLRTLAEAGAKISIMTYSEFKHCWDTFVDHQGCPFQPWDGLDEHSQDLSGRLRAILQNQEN
UniProt Q9UBN7: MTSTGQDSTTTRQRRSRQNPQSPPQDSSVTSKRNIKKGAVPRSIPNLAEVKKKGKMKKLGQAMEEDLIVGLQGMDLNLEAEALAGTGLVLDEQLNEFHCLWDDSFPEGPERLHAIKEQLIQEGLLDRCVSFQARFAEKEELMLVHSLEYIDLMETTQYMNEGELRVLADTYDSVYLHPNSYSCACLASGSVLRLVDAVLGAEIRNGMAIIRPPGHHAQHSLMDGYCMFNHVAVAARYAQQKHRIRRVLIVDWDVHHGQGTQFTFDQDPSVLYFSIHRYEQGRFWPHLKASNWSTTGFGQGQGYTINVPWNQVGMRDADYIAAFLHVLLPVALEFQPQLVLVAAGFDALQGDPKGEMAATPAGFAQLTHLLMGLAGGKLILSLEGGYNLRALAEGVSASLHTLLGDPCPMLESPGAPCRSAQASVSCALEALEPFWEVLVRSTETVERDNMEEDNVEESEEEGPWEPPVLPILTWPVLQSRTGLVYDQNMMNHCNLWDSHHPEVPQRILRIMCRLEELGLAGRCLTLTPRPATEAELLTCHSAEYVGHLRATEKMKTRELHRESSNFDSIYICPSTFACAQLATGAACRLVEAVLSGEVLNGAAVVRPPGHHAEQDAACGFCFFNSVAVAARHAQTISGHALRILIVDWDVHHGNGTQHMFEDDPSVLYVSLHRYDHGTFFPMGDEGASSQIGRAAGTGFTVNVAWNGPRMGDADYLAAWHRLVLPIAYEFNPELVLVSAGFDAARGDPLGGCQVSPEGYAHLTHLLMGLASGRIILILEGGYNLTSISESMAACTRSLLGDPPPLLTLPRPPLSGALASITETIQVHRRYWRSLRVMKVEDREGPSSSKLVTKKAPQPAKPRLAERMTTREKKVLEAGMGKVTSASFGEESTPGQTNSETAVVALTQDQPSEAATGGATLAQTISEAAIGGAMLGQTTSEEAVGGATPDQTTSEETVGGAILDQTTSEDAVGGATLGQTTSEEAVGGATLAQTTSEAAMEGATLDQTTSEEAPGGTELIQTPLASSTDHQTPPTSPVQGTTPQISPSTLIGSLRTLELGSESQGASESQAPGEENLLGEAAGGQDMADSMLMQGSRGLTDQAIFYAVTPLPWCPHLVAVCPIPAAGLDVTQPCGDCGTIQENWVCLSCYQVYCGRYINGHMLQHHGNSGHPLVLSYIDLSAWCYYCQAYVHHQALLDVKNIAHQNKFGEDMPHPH

These are yes or no findings as the source states them, for the method shown. For some of these results: Binding seen in cells or lysates may run through a third protein. Some entries that bind do so weakly or less than the wild type.

Regarding “EGFP-wt-HDAC6 (from UniProt Q9UBN7 1-1215)”, the binding result in assay [1], in assay [2] and in assay [3] was “binds” throughout.

Consider “HA-HDAC6-ΔBUZ (in vitro translated) (from UniProt Q9UBN7 1-840) (domain or fragment)”, for which the binding result in assay [4], in assay [5], in assay [6], in assay [7] and in assay [8] was “binds” each time.

On to A3G-3xHA (from UniProt Q9HC16 1-384), for which the binding result in assay [9], in assay [10], in assay [11], in assay [12], in [13] and in assay [14] was “binds” each time.

In the case of “EGFP-HDAC6-ΔBUZ (from UniProt Q9UBN7 1-840) (domain or fragment)”, the binding result in [1] and in assay [3] was “binds” each time.

For “endogenous HDAC6 (HEK 293T cells) (from UniProt Q9UBN7 1-1215)”, the binding entry in assay [2] was “binds”.

As for “HA-BUZ (in vitro translated) (from UniProt Q9UBN7 841-1215) (domain or fragment)”, the binding result in assay [5], in [6], in assay [7] and in assay [8] was “binds” each time.

“HA-wt-HDAC6 (HEK 293T) (from UniProt Q9UBN7 1-1215)”: the binding result in assay [15] and in assay [16] was “binds” each time.

For the substance “Vif (overexpressed in CEM.NKR.CCR5 cells) (from UniProt P12504)”, the binding entry in [17] is recorded as “binds”.

As to “endogenous A3G (CEM.NKR.CCR5 cells) (from UniProt Q9HC16 1-384)”, in [17], the binding entry is on record as “binds”.

For the origin of these results see article PMC4479245.
